In paper PMC3763546, “Structural insight into negative DNA supercoiling by DNA gyrase, a bacterial type 2A DNA topoisomerase” (Nucleic Acids Research, 2013):
These are yes or no findings as the source states them, for the method shown. Some results given as binding are weak or reduced against the parent protein; the word gives no strength. For some assays here: Sequences can lack the tags named with a protein.

What was measured:
[1] = target: T1, Thermus thermophilus DNA gyrase subunit A (GyrA), as it stands in GyrBA-fus (Thermus thermophilus) (UniProt Q5SIL4); assay: cryo-EM structure; holoenzyme: GyrBA-fus with ADPNP, cross-linked with glutaraldehyde; single-particle reconstruction, 2-fold symmetry applied in the last refinement step, 16.9 A (FSC 0.5); crystal structures of homologous domains fitted; both purified
T1 sequence: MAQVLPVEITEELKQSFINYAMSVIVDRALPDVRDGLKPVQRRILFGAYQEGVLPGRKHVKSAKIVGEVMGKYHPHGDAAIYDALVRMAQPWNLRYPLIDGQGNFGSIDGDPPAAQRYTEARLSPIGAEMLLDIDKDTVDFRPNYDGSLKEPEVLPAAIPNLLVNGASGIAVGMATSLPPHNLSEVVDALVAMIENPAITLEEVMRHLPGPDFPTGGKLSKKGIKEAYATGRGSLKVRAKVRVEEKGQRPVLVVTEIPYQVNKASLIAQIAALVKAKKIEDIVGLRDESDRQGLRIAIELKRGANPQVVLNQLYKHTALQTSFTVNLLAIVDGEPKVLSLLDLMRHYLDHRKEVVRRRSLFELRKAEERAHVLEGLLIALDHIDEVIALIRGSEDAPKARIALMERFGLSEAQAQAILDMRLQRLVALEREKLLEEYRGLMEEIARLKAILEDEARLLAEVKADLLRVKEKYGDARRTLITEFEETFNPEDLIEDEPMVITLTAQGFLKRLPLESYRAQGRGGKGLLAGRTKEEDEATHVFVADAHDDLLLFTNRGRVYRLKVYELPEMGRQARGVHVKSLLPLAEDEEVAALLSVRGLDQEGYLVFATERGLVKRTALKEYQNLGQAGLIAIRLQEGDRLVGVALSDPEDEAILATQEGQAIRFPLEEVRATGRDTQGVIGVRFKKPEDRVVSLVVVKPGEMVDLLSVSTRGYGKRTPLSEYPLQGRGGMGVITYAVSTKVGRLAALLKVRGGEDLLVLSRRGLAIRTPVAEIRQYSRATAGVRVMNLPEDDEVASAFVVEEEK

[2] = target: Thermus thermophilus DNA gyrase subunit B (GyrB), as it stands in GyrBA-fus (Thermus thermophilus) (UniProt Q5SHZ4); assay: cryo-EM structure; DNA-bound complex: GyrBA-fus with 155 bp DNA, ciprofloxacin and ADPNP; single-particle reconstruction, no symmetry applied, 23 A (FSC 0.5); crystal structures of homologous domains fitted; both purified

## Thermus thermophilus DNA gyrase subunit B (GyrB), as it stands in GyrBA-fus (from UniProt Q5SHZ4 1-634) (enzyme)
[1]
  binding: binds
[2]
  binding: binds
